Source: PubChem BioAssay AID624246 (National Center for Advancing Translational Sciences (NCATS), 2012)
Hit rate of the full screen: of about 370,000 compounds, about 100 (0.027%) were called active. The inconclusive results got no clear call from the source; some entries with a clear call stand among them for comparison. Calls follow the shape of the dose curve; as a rule, active = well fitted inhibition curve with a large enough effect in the polarisation, with a control signal flat; inconclusive = small, poorly fitted or top-dose-only effect, or effect the other way, or a change in a side signal; inactive = no such curve, though single readings can be large or run the other way; the % refers to the polarisation. A potency beside an inconclusive call is a rough fit, not a confirmed value. “Side channel” marks fits to a control or component signal instead of the main read-out.

Sequences of proteins named here, by UniProt entry; tags and fusion partners are left off. A change or cut given only in a name is not applied to a line headed by its entry.
UniProt P11308: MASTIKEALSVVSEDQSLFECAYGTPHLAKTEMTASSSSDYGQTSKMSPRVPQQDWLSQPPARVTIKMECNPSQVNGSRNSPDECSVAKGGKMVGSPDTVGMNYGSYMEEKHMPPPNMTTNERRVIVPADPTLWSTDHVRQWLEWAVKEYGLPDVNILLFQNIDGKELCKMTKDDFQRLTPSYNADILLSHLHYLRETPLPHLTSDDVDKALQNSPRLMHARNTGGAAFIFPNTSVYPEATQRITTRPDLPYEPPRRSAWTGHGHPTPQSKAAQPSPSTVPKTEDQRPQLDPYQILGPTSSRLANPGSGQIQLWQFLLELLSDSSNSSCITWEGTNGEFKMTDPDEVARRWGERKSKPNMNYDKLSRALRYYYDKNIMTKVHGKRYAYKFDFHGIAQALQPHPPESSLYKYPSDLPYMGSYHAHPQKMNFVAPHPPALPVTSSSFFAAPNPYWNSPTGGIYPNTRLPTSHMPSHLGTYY

These compounds were tested against Transcriptional regulator ERG (Homo sapiens) (UniProt P11308) (assay: qHTS for Small Molecule Inhibitors of the ERG Ets/DNA interaction). Settings: fluorescence polarization, His-ERG Ets domain / labelled DNA; series mostly up to 76.9 µM.
In short: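 His-tagged ERG Ets domain (1 uM in the protein solution; 300mM KCl, 50mM Tris-HCl, 1mM EDTA, 1mM DTT, pH 7.5) received compound, then a probe mix of 5 nM fluorescein-DNA and 100nM Texas-615-DNA. Fluorescence polarization was read for both dyes.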
Potency is read from the fitted curve at half-maximal effect.

**Q.** Which Potency does the source give for `Cc1ccc(CN2CCN(Cc3ccc4c(c3)OCCO4)CC2CCO)cc1` (centres undefined) here?
**A.** Its Potency is “inactive”.

**Q.** How did the Potency turn out when `Cc1cc(C)cc(NC(=O)[C@H](Cc2c[nH]c3ccccc23)NC(=O)[C@@H]2Cc3ccccc3CN2)c1` was run?
**A.** The Potency was inconclusive: 11.2 µM [inhibitor, single point].

**Q.** `COc1cc(OC)cc(C(=O)NC(=S)NNC(=O)Cc2cccs2)c1` was tested. Which Potency did it give?
**A.** The Potency was “inactive”.

**Q.** Which Potency does the source give for `COc1ccc(CCNC(=O)c2ccn[nH]2)cc1OC` here?
**A.** Its Potency is inconclusive: 31.6 µM [quencher, side channel, partial curve, poor fit].

**Q.** With `COCCN1CCN(C(=O)C2CCC(=O)N(Cc3ccccc3OC)C2)CC1` (centres undefined) as the compound, how does the Potency read?
**A.** The Potency was inconclusive: 44.7 µM [inhibitor, partial curve, poor fit].

**Q.** How did the Potency turn out when `CCN(CC(=O)Nc1ccc(Cl)c(S(=O)(=O)N(C)C)c1)Cc1nc2ccccc2c(=O)[nH]1` was run?
**A.** Its Potency is inconclusive: 35.5 µM [inhibitor, single point].

**Q.** Which Potency does the source give for `Cn1nnnc1-c1cc(Cl)cc(Cl)c1` here?
**A.** Its Potency is inconclusive: 11.2 µM [inhibitor, single point].

**Q.** With `O=C(NCCc1ccc(Cl)cc1)c1cnc2n(c1=O)CCS2` as the compound, how does the Potency read?
**A.** Its Potency is “inactive”.

**Q.** How did the Potency turn out when `COc1ccc2ccccc2c1C(=O)/C=C\c1ccoc1` was run?
**A.** Its Potency is “inactive”.

**Q.** For `COCCCN(CCC#N)C(=O)c1c(-c2c(Cl)cccc2Cl)noc1C`, which Potency is on record?
**A.** The Potency was inconclusive: 2.24 µM [inhibitor, full curve, poor fit].

**Q.** With `COc1ccc(/C=C/c2c(-c3ccc(OC)cc3)sc3cc(OC)c(OC)cc23)cc1` as the compound, how does the Potency read?
**A.** The Potency was inconclusive: 15.8 µM [inhibitor, partial curve, poor fit].

**Q.** With `CCc1nn2c(-c3ccco3)ccnc2c1-c1ccc(F)cc1` as the compound, how does the Potency read?
**A.** Its Potency is inconclusive: 50.1 µM [inhibitor, partial curve, poor fit].

**Q.** With `O=[n+]1c2c(n([O-])c3cc(F)c(N4CCCC4)cc31)CCC2` as the compound, how does the Potency read?
**A.** The Potency was inconclusive: 31.6 µM [fluorescent, side channel, partial curve].

**Q.** Which Potency does the source give for `N#Cc1cccnc1Nc1ccc(Cl)cc1` here?
**A.** Its Potency is inconclusive: 3.55 µM [quencher, side channel, single point].

**Q.** Which Potency does the source give for `Cc1ccc(-c2ocnc2C(=O)Nc2ccccc2NC(=O)c2ccccn2)cc1` here?
**A.** The Potency was “inactive”.

**Q.** Which Potency does the source give for `C=CCNC(=S)/N=c1/ccccn1C` here?
**A.** Its Potency is “inactive”.

**Q.** With `COc1ccc(OCC(=O)N2CCN(S(=O)(=O)c3ccc(Cl)s3)CC2)cc1` as the compound, how does the Potency read?
**A.** Its Potency is “inactive”.

**Q.** How did the Potency turn out when `COC(=O)c1cccc(NC(=O)Cc2nc(-c3ccccc3)sc2-c2ccc(C)cc2)c1` was run?
**A.** Its Potency is “inactive”.

**Q.** How did the Potency turn out when `Cc1ccc2c(ccn3cc4c(c(=O)n(C)c(=O)n4C)c23)c1` was run?
**A.** The Potency was “inactive”.

**Q.** `CCOC(=O)C1CCN(C(=S)Nc2ccc(CC)cc2)CC1` was tested. Which Potency did it give?
**A.** The Potency was “inactive”.

**Q.** How did the Potency turn out when `COc1cccc(CNC(=O)c2oc3c(c2C)-c2nn(Cc4cccc(Cl)c4)cc2CC3)c1OC` was run?
**A.** Its Potency is inconclusive: 35.5 µM [quencher, side channel, partial curve, poor fit].

**Q.** Which Potency does the source give for `O=C(N/N=C/c1cc2c3c(c1O)CCCN3CCC2)c1ccccc1O` here?
**A.** Its Potency is inconclusive: 39.8 µM [inhibitor, partial curve, poor fit].

**Q.** For `CN(C)CCN1C(=O)c2cccc3cc([N+](=O)[O-])cc(c23)C1=O`, which Potency is on record?
**A.** The Potency was inconclusive: 35.5 µM [inhibitor, single point].

**Q.** Which Potency does the source give for `c1ccc(CN2CCN(C3=Nc4cccc5cccc3c45)CC2)cc1` here?
**A.** Its Potency is “inactive”.

**Q.** With `c1ccc(Oc2ncnc3ccccc23)cc1` as the compound, how does the Potency read?
**A.** The Potency was inconclusive: 8.91 µM [inhibitor, full curve, poor fit].

**Q.** For `NS(=O)(=O)c1cccc(NC(=O)COC(=O)CSCc2ccccc2)c1`, which Potency is on record?
**A.** Its Potency is inconclusive: 11.2 µM [inhibitor, single point].

**Q.** How did the Potency turn out when `COc1cccc(C(=O)c2c(C)c(CCC#N)n3ccccc23)c1OC` was run?
**A.** Its Potency is inconclusive: 3.55 µM [inhibitor, partial curve, poor fit].

**Q.** For `O=C(O)CC(CC(=O)N1CCOCC1)c1ccccc1` (centres undefined), which Potency is on record?
**A.** Its Potency is inconclusive: 0.282 µM [inhibitor, full curve, poor fit].

**Q.** For `Oc1ccc(N=Cc2sc3ccccc3c2Cl)cc1`, which Potency is on record?
**A.** The Potency was inconclusive: 56.2 µM [inhibitor, partial curve, poor fit].

**Q.** With `Cc1ccc(S(=O)(=O)NCC(=O)NCC(=O)OC(C(=O)NC(N)=O)C(C)C)cc1C` (centres undefined) as the compound, how does the Potency read?
**A.** The Potency was inconclusive: 35.5 µM [inhibitor, single point].

**Q.** `COc1ccc(C)cc1NC(=O)c1ccc2c(SCC(=O)O)c3c(nc2c1)CCCC3` was tested. Which Potency did it give?
**A.** Its Potency is “inactive”.

**Q.** With `O=C(NC(=S)Nc1ccccc1N1CCCC1)c1ccccc1[N+](=O)[O-]` as the compound, how does the Potency read?
**A.** The Potency was “inactive”.

**Q.** `Fc1ccc(-n2cc(-c3ccccc3)c3c(NN4CCOCC4)ncnc32)cc1` was tested. Which Potency did it give?
**A.** The Potency was “inactive”.

**Q.** Which Potency does the source give for `Cc1nc([N+](=O)[O-])c(Br)n1Cc1ccc(Cl)c(Cl)c1` here?
**A.** Its Potency is “inactive”.

**Q.** `COc1cccc(CCN2C(=O)C(=O)N([C@@H](CNCc3ccccc3)Cc3ccccc3F)C[C@@H]2C(C)(C)C)c1` was tested. Which Potency did it give?
**A.** Its Potency is inconclusive: 22.4 µM [inhibitor, partial curve].

**Q.** Which Potency does the source give for `CCN(CC(=O)Nc1ccc(NC(C)=O)cc1)C(=O)C1CCCN(C(=O)c2ccc(Cl)cc2)C1` (centres undefined) here?
**A.** The Potency was inconclusive: 35.5 µM [inhibitor, single point].

**Q.** With `O=C(Nc1cc(-c2nc3ccccc3s2)ccc1Cl)c1cc2ccccc2o1` as the compound, how does the Potency read?
**A.** Its Potency is inconclusive: 31.6 µM [fluorescent, side channel, partial curve, poor fit].

**Q.** Which Potency does the source give for `Cc1ccc(NS(=O)(=O)c2ccc(NC(=O)c3ccccc3C(=O)O)cc2)cc1C` here?
**A.** Its Potency is inconclusive: 20 µM [inhibitor, partial curve, poor fit].

**Q.** Which Potency does the source give for `Cc1cc(NS(=O)(=O)c2ccc(NC(=O)Nc3cccc(Cl)c3)cc2)no1` here?
**A.** The Potency was inconclusive: 28.2 µM [quencher, partial curve, poor fit].

**Q.** With `NNC(=O)c1cc2cc3ccccc3nc2s1` as the compound, how does the Potency read?
**A.** Its Potency is “inactive”.

**Q.** How did the Potency turn out when `COc1ccc(C(=O)NCc2csc(C)n2)cc1OC1CCN(C(C)=O)CC1` was run?
**A.** Its Potency is inconclusive: 50.1 µM [inhibitor, single point].

**Q.** How did the Potency turn out when `O=C(NCCCN1CCOCC1)c1ccc(CSc2ccc(Cl)cc2)cc1` was run?
**A.** The Potency was inconclusive: 11.2 µM [inhibitor, single point].

**Q.** With `Nn1c(Cc2cccc3ccccc23)n[nH]c1=S` as the compound, how does the Potency read?
**A.** The Potency was “inactive”.

**Q.** `NS(=O)(=O)c1ccc(NC(=O)COC(=O)c2c3c(nc4ccccc24)/C(=C\c2ccc4c(c2)OCO4)CCC3)cc1` was tested. Which Potency did it give?
**A.** Its Potency is inconclusive: 10 µM [inhibitor, single point].
